# PubChem BioAssay AID504764, Drosophila RNAi Screening Center | 2011
# Purpose: 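Genome-wide screen for regulators of Notch-driven gene expression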 (primary screen)
# System: Drosophila Kc167 cells
# Reagent: long dsRNA against Drosophila genes
# Time to read-out: about 5 days (4 days dsRNA, then 24 h after transfection)
# Treatment: transfection of constitutively active membrane-tethered Notch lacking the extracellular domain, read 24 h later
# Detection: 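Light from a Notch-responsive E(spl)m3 luciferase reporter under active Notch, with control-promoter and no-Notch reporter wells to normalise; raw counts from paired wells a and b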
# Direction: induced reporter light, run 1, well a and induced reporter light, run 1, well b: higher = more light from the Notch target reporter with active Notch; control promoter light, run 1, well a and control promoter light, run 1, well b: higher = more light from the viral control promoter (cell number, transfection, viability); uninduced reporter light, run 1, well a: higher = more light from the Notch target reporter without active Notch
# Hit rule: 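Wells with low control signal or poorly matching duplicates excluded; duplicates averaged; per source plate, z beyond ±2 for induced/control log2 ratio or beyond ±1.8 for induced/uninduced marks a hit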
# Meaning of the calls: active = modifier hit (raised or lowered Notch signal); inactive = not a hit
# The deposit covers about 22,000 reagents; below is a random part of those that have a named target and a result. Over the whole deposit, 403 (1.9%) are marked active. 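Unnormalised raw counts per well; ratio z-scores behind the hit calls and whether each hit raises or lowers signal are not deposited.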 The record does not give: the amount of reagent.
"induced reporter light, run 1, well a","induced reporter light, run 1, well b","control promoter light, run 1, well a","control promoter light, run 1, well b","uninduced reporter light, run 1, well a",activity call,Target gene,DRSC id
1.23e5,1.15e5,1.63e5,1.40e5,9200,inactive,CG34011,DRSC00888
1.81e5,1.96e5,1.93e5,1.73e5,14880,inactive,Grl62a,DRSC07963
1.32e5,1.95e5,75075,1.10e5,21065,inactive,CG12560,DRSC02174
1.52e5,1.90e5,1.93e5,1.99e5,16525,inactive,TTLL4B,DRSC00636
2.98e5,2.22e5,2.00e5,2.06e5,19655,inactive,p130CAS,DRSC07862
48200,41365,60250,72240,3615,inactive,p130CAS,DRSC08257
1.24e5,1.43e5,74905,87705,18100,inactive,CG17005,DRSC02556
1.19e5,1.31e5,1.40e5,1.33e5,6632,inactive,CG10853,DRSC08164
1.11e5,1.11e5,62130,35385,10080,inactive,CG8003,DRSC10946
1.48e5,1.45e5,92320,82060,9355,inactive,CG2082,DRSC12125
69580,81965,80270,98750,10245,inactive,HP1D3csd,DRSC19548
31300,23860,29270,20828,3245,inactive,bel,DRSC16555
71055,96600,83905,91515,7200,inactive,Prosbeta2R2,DRSC12193
61810,49500,53705,33925,7770,inactive,ix,DRSC06325
62255,85230,68185,54470,4650,inactive,Zaf1,DRSC16121
89975,92845,1.64e5,1.43e5,6860,inactive,CG8001,DRSC08611
98180,83630,1.07e5,1.34e5,12625,inactive,CG14191,DRSC19546
2.09e5,1.86e5,2.16e5,2.78e5,16960,inactive,unk,DRSC17093
99145,1.09e5,72870,75290,7245,inactive,Dgkepsilon,DRSC07399
2.21e5,1.65e5,1.67e5,1.83e5,8535,inactive,CG16998,DRSC10235

Copied from the listing for reference:
"induced reporter light, run 1, well a","induced reporter light, run 1, well b","control promoter light, run 1, well a","control promoter light, run 1, well b","uninduced reporter light, run 1, well a",activity call,Target gene,DRSC id
1.19e5,1.31e5,1.40e5,1.33e5,6632,inactive,CG10853,DRSC08164
1.11e5,1.11e5,62130,35385,10080,inactive,CG8003,DRSC10946
